Laboratory results from US20050182061A1, “Phthalimide compounds useful as protein kinase inhibitors” (priority 2003, published 2005).
Some entries share one result that the patent states for a list of compounds. For part of these data: At least one compound was matched to its structure with a doubt left.

By UniProt entry, the sequences of proteins in these tests, tags left out.
UniProt P23443, whole entry T412E: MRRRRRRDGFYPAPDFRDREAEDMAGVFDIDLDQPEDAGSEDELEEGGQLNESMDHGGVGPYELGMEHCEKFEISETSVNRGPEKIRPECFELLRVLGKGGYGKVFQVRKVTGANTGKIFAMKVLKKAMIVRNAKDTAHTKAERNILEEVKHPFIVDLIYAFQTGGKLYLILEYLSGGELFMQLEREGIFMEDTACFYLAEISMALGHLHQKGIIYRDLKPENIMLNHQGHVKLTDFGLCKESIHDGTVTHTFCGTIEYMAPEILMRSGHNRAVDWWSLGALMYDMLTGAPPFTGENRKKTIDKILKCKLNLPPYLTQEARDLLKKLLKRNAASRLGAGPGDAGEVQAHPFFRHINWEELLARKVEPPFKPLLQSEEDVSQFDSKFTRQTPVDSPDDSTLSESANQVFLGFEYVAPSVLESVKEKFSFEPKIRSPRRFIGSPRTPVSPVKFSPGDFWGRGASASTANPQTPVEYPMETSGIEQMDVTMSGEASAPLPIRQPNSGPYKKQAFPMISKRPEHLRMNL

Key:
[1] = biological target: T1, p70S6K (Homo sapiens, UniProt P23443); test: p70S6K Inhibition Assay (radioactive-phosphate incorporation assay); assay type: biochemical; conditions: 15 μM ATP, 100 μM peptide, 30° C.
T1 construct: fused on or other part: His6 tag, from knowledge of the vendor's product

[2] = biological target: ROCK; test: ROCK Inhibition Assay (standard coupled enzyme assay); assay type: biochemical; conditions: 13 μM ATP, 200 μM peptide, 30° C.

Row | Compound | Ki [1] | Ki [2]
1 | CC(Oc1ccccc1)C(=O)Nc1ccc2c(c1)C(=O)NC2=O (stereo not drawn) [Compound I-97] | ≤ 2 µM | ≤ 2 µM
2 | O=C(CNc1cccc2c1CCCC2)Nc1ccc2c(c1)C(=O)NC2=O [Compound I-71] | ≤ 2 µM | ≤ 2 µM
3 | Cc1ccc(C)c(CC(=O)Nc2ccc3c(c2)C(=O)NC3=O)c1 [Compound I-115] | ≤ 2 µM | 
4 | O=C(COc1cccc2ccccc12)Nc1ccc2c(c1)C(=O)NC2=O [Compound I-75] | ≤ 2 µM | 
5 | O=C(Cc1cccc(F)c1)Nc1ccc2c(c1)C(=O)NC2=O [Compound I-107] | ≤ 2 µM | ≤ 2 µM
6 | O=C(Cc1ccc(F)cc1F)Nc1ccc2c(c1)C(=O)NC2=O [Compound I-92] | ≤ 2 µM | ≤ 2 µM
7 | O=C(Cc1ccccc1Br)Nc1ccc2c(c1)C(=O)NC2=O [Compound I-21] | ≤ 2 µM | 
8 | Cc1cccc(C)c1SCC(=O)Nc1ccc2c(c1)C(=O)NC2=O [Compound I-62] | ≤ 2 µM | 
9 | O=C(CNc1cccc(F)c1)Nc1ccc2c(c1)C(=O)NC2=O [Compound I-37] | ≤ 2 µM | ≤ 2 µM
10 | O=C(CSc1ccc(OC(F)(F)F)cc1)Nc1ccc2c(c1)C(=O)NC2=O [Compound I-67] | ≤ 2 µM | 
11 | Cc1ccc(SCC(=O)Nc2ccc3c(c2)C(=O)NC3=O)cc1C [Compound I-11] | ≤ 2 µM | 
12 | O=C(CSc1cccc(Cl)c1Cl)Nc1ccc2c(c1)C(=O)NC2=O [Compound I-79] | ≤ 2 µM | ≤ 2 µM
13 | O=C(Cc1ccccc1F)Nc1ccc2c(c1)C(=O)NC2=O [Compound I-19] | ≤ 2 µM | ≤ 2 µM
14 | O=C(Cc1ccc(F)cc1)Nc1ccc2c(c1)C(=O)NC2=O [Compound I-90] | ≤ 2 µM | ≤ 2 µM
15 | O=C(Cc1ccc2c(c1)OCO2)Nc1ccc2c(c1)C(=O)NC2=O [Compound I-9] | ≤ 2 µM | ≤ 2 µM
16 | Nc1ccccc1SCC(=O)Nc1ccc2c(c1)C(=O)NC2=O [Compound I-26] | ≤ 2 µM | 
17 | COc1cccc(OCC(=O)Nc2ccc3c(c2)C(=O)NC3=O)c1 [Compound I-40] | ≤ 2 µM | ≤ 2 µM
18 | O=C(CSCc1ccc(Cl)cc1Cl)Nc1ccc2c(c1)C(=O)NC2=O [Compound I-126] | ≤ 2 µM | 
19 | O=C(CNc1cccc2ccccc12)Nc1ccc2c(c1)C(=O)NC2=O [Compound I-33] | ≤ 2 µM | 
20 | CCOc1cccc(CC(=O)Nc2ccc3c(c2)C(=O)NC3=O)c1 [Compound I-103] | ≤ 2 µM | 
21 | O=C(CSc1ccccc1C(F)(F)F)Nc1ccc2c(c1)C(=O)NC2=O [Compound I-78] | ≤ 2 µM | ≤ 2 µM
22 | O=C(CSc1ccccc1CO)Nc1ccc2c(c1)C(=O)NC2=O [Compound I-27] | ≤ 2 µM | 

Row | Compound | Ki [1] | Ki [2]
23 | O=C(Cc1ccc(F)c(C(F)(F)F)c1)Nc1ccc2c(c1)C(=O)NC2=O [Compound I-123] | ≤ 2 µM | 
24 | COc1ccc(CC(=O)Nc2ccc3c(c2)C(=O)NC3=O)cc1 [Compound I-8] | ≤ 2 µM | ≤ 2 µM
25 | COc1ccc(CC(=O)Nc2ccc3c(c2)C(=O)NC3=O)c(OC)c1 [Compound I-98] | ≤ 2 µM | 
26 | Nc1ccc(SCC(=O)Nc2ccc3c(c2)C(=O)NC3=O)cc1 [Compound I-18] | ≤ 2 µM | 
27 | O=C(COc1ccc(F)cc1)Nc1ccc2c(c1)C(=O)NC2=O [Compound I-118] | ≤ 2 µM | 
28 | COc1ccc(NCC(=O)Nc2ccc3c(c2)C(=O)NC3=O)cc1OC [Compound I-17] | ≤ 2 µM | 
29 | COc1cc(NCC(=O)Nc2ccc3c(c2)C(=O)NC3=O)cc(OC)c1 [Compound I-35] | ≤ 2 µM | 
30 | O=C(CSc1ccccc1)Nc1ccc2c(c1)C(=O)NC2=O [Compound I-25] | ≤ 2 µM | ≤ 2 µM
31 | Cc1ccccc1NCC(=O)Nc1ccc2c(c1)C(=O)NC2=O [Compound I-38] | ≤ 2 µM | ≤ 2 µM
32 | Cc1ccc(OCC(=O)Nc2ccc3c(c2)C(=O)NC3=O)c(C)c1 [Compound I-109] | ≤ 2 µM | 
33 | COc1ccc(OCC(=O)Nc2ccc3c(c2)C(=O)NC3=O)cc1 [Compound I-87] | ≤ 2 µM | 
34 | Cc1ccc(C)c(SCC(=O)Nc2ccc3c(c2)C(=O)NC3=O)c1 [Compound I-61] | ≤ 2 µM | 
35 | Cc1cccc(CC(=O)Nc2ccc3c(c2)C(=O)NC3=O)c1 [Compound I-22] | ≤ 2 µM | 
36 | O=C(Nc1ccc2c(c1)C(=O)NC2=O)c1cccc(Br)c1 [Compound I-132] | ≤ 2 µM | 
37 | Cc1cccc(NCC(=O)Nc2ccc3c(c2)C(=O)NC3=O)c1C [Compound I-28] | ≤ 2 µM | 
38 | Cc1cccc(OCC(=O)Nc2ccc3c(c2)C(=O)NC3=O)c1C [Compound I-76] | ≤ 2 µM | 
39 | O=C(CNc1ccc2c(c1)OCO2)Nc1ccc2c(c1)C(=O)NC2=O [Compound I-50] | ≤ 2 µM | 
40 | Cc1ccc(NCC(=O)Nc2ccc3c(c2)C(=O)NC3=O)cc1 [Compound I-51] | ≤ 2 µM | 
41 | CC(=O)Nc1ccc(SCC(=O)Nc2ccc3c(c2)C(=O)NC3=O)cc1 [Compound I-23] | ≤ 2 µM | 
42 | O=C(Nc1ccc2c(c1)C(=O)NC2=O)c1cccs1 [Compound I-131] | ≤ 2 µM | 
43 | Cc1cccc(SCC(=O)Nc2ccc3c(c2)C(=O)NC3=O)c1 [Compound I-65] | ≤ 2 µM | 
44 | O=C(CSc1cc(Cl)cc(Cl)c1)Nc1ccc2c(c1)C(=O)NC2=O [Compound I-80] | ≤ 2 µM | 

Row | Compound | Ki [1] | Ki [2]
45 | O=C(CNc1ccc(Cl)cc1)Nc1ccc2c(c1)C(=O)NC2=O [Compound I-52] | ≤ 2 µM | 
46 | O=C(COc1cccc(Cl)c1)Nc1ccc2c(c1)C(=O)NC2=O [Compound I-73] | ≤ 2 µM | 
47 | O=C(Cc1c(F)cccc1F)Nc1ccc2c(c1)C(=O)NC2=O [Compound I-93] | ≤ 2 µM | 
48 | O=C(CNc1ccc2c(c1)CCC2)Nc1ccc2c(c1)C(=O)NC2=O [Compound I-15] | ≤ 2 µM | 
49 | O=C(Cc1ccc(F)cc1C(F)(F)F)Nc1ccc2c(c1)C(=O)NC2=O [Compound I-116] | ≤ 2 µM | 
50 | O=C(CSc1cccc(OC(F)(F)F)c1)Nc1ccc2c(c1)C(=O)NC2=O [Compound I-89] | ≤ 2 µM | 
51 | Cc1cc(C)cc(CC(=O)Nc2ccc3c(c2)C(=O)NC3=O)c1 [Compound I-20] | ≤ 2 µM | 
52 | Cc1ccccc1SCC(=O)Nc1ccc2c(c1)C(=O)NC2=O [Compound I-7] | ≤ 2 µM | 
53 | O=C(CSc1cccc(C(F)(F)F)c1)Nc1ccc2c(c1)C(=O)NC2=O [Compound I-66] | ≤ 2 µM | 
54 | Cc1cccc(C)c1OCC(=O)Nc1ccc2c(c1)C(=O)NC2=O [Compound I-133] | ≤ 2 µM | 
55 | O=C(CSc1ccc(F)cc1Cl)Nc1ccc2c(c1)C(=O)NC2=O [Compound I-54] | ≤ 2 µM | 
56 | O=C(COc1ccc(Br)cc1)Nc1ccc2c(c1)C(=O)NC2=O [Compound I-134] | ≤ 2 µM | 
57 | O=C(CSc1c(Cl)cccc1Cl)Nc1ccc2c(c1)C(=O)NC2=O [Compound I-12] | ≤ 2 µM | 
58 | COc1ccc(O[C@H](C)C(=O)Nc2ccc3c(c2)C(=O)NC3=O)cc1 [Compound I-119] | ≤ 2 µM | 
59 | O=C(Nc1ccc2c(c1)C(=O)NC2=O)c1ccc(Cl)cc1Cl [Compound I-139] | ≤ 2 µM | 
60 | O=C(Cc1c(F)cccc1Cl)Nc1ccc2c(c1)C(=O)NC2=O [Compound I-91] | ≤ 2 µM | 
61 | COc1ccccc1CC(=O)Nc1ccc2c(c1)C(=O)NC2=O [Compound I-46] | ≤ 2 µM | 
62 | O=C(CNc1ccccc1)Nc1ccc2c(c1)C(=O)NC2=O [Compound I-53] | ≤ 2 µM | 
63 | Cc1ccc(OCC(=O)Nc2ccc3c(c2)C(=O)NC3=O)cc1C [Compound I-110] | ≤ 2 µM | 
64 | Cc1ccc(C)c(OCC(=O)Nc2ccc3c(c2)C(=O)NC3=O)c1 [Compound I-111] | ≤ 2 µM | 
65 | Cc1cccc(OCC(=O)Nc2ccc3c(c2)C(=O)NC3=O)c1 [Compound I-94] | ≤ 2 µM | 
66 | O=C(COc1ccccc1)Nc1ccc2c(c1)C(=O)NC2=O [Compound I-127] |  | ≤ 2 µM

Row | Compound | Ki [1] | Ki [2]
67 | O=C(CNc1ccc2c(c1)OCCO2)Nc1ccc2c(c1)C(=O)NC2=O [Compound I-16] | ≤ 2 µM | 
68 | O=C(CNc1cccc2c1CCC2)Nc1ccc2c(c1)C(=O)NC2=O [Compound I-85] | ≤ 2 µM | 
69 | Cc1ccccc1OCC(=O)Nc1ccc2c(c1)C(=O)NC2=O [Compound I-130] | ≤ 2 µM | 
70 | O=C(Cc1ccc(Br)cc1)Nc1ccc2c(c1)C(=O)NC2=O [Compound I-48] | ≤ 2 µM | 
71 | COc1cccc(SCC(=O)Nc2ccc3c(c2)C(=O)NC3=O)c1 [Compound I-4] | ≤ 2 µM | 
72 | Cc1ccc(NCC(=O)Nc2ccc3c(c2)C(=O)NC3=O)cc1C [Compound I-32] | ≤ 2 µM | 
73 | Cc1ccccc1CC(=O)Nc1ccc2c(c1)C(=O)NC2=O [Compound I-45] | ≤ 2 µM | 
74 | O=C(COc1ccccc1Cl)Nc1ccc2c(c1)C(=O)NC2=O [Compound I-86] | ≤ 2 µM | 
75 | COc1ccc(OC)c(NCC(=O)Nc2ccc3c(c2)C(=O)NC3=O)c1 [Compound I-14] | ≤ 2 µM | 
76 | O=C(CSc1cccc(F)c1)Nc1ccc2c(c1)C(=O)NC2=O [Compound I-13] | ≤ 2 µM | 
77 | COC(F)(C(=O)Nc1ccc2c(c1)C(=O)NC2=O)C(F)(F)F (stereo not drawn) [Compound I-125] | ≤ 2 µM | 
78 | COc1ccc(SCC(=O)Nc2ccc3c(c2)C(=O)NC3=O)cc1 [Compound I-24] | ≤ 2 µM | 
79 | CCc1ccc(OCC(=O)Nc2ccc3c(c2)C(=O)NC3=O)cc1 [Compound I-96] | ≤ 2 µM | 
80 | O=C(Cc1cccc(Br)c1)Nc1ccc2c(c1)C(=O)NC2=O [Compound I-47] | ≤ 2 µM | 
81 | Cn1cc(N)c(C(=O)Nc2ccc3c(c2)C(=O)NC3=O)n1 [Compound I-124] | ≤ 2 µM | 
82 | COc1cc(Br)c(CC(=O)Nc2ccc3c(c2)C(=O)NC3=O)cc1OC [Compound I-70] | ≤ 2 µM | 
83 | O=C(Cc1cc(F)cc(C(F)(F)F)c1)Nc1ccc2c(c1)C(=O)NC2=O [Compound I-117] | ≤ 2 µM | 
84 | O=C(CS(=O)(=O)c1ccccc1)Nc1ccc2c(c1)C(=O)NC2=O [Compound I-63] | ≤ 2 µM | 
85 | COc1ccccc1NCC(=O)Nc1ccc2c(c1)C(=O)NC2=O [Compound I-30] | ≤ 2 µM | 
86 | O=C(CSc1ccccc1OC(F)(F)F)Nc1ccc2c(c1)C(=O)NC2=O [Compound I-82] | ≤ 2 µM | 
87 | COc1ccccc1OCC(=O)Nc1ccc2c(c1)C(=O)NC2=O [Compound I-100] | ≤ 2 µM | 
88 | O=C(Cc1cc(Cl)ccc1C(F)(F)F)Nc1ccc2c(c1)C(=O)NC2=O [Compound I-121] | ≤ 2 µM | 
